PubChem BioAssay AID1224826 – NIAID | 2016

- Purpose: 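Regulators of Tlr4 signalling leading to Tnf-alpha expression in macrophages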 (primary screen)
- System: RAW264.7 G9 macrophages from mouse bearing reporters for p65 (GFP) and the Tnf promoter (mCherry)
- Reagent: siRNA pool against mouse genes, 100 nM
- Duration: 16 h of LPS stimulation, after 2 days of siRNA transfection
- Conditions: bacterial lipopolysaccharide (Salmonella minnesota R595), 10 ng/ml
- Detection: 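Nuclear mCherry signal of the Tnf promoter reporter measured by imaging after background removal, scaled to each plate median and turned into robust z-scores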
- Direction: Tnf reporter robust z-score: higher = stronger Tnf promoter reporter signal after LPS
- Rule for the call: 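a well counts as active at a score of -1.3 or below (Tlr4 knock-down control median) or above 3 (raised signal); controls and wells holding fewer than 50 cells are excluded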
- Meaning of the calls: active = Tnf reporter clearly lowered or raised; inactive = no clear change in Tnf reporter
Shown is an unselected part of about 17,000 reagents. Over the whole deposit, about 1,110 (6.6%) were called active. 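Active means lowered or raised reporter signal; replicate intensities are raw and not normalised per plate.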 Unmarked entries are inactive. Reagents against one gene are numbered here. Not all columns of the deposit are shown.

Psma4 (GeneID 26441) → fewer than 50 cells in well: fewer than 50 cells per well; well left out of calls
Tnfrsf22 (GeneID 79202) #1 → fewer than 50 cells in well: fewer than 50 cells per well; well left out of calls
Tnfrsf22 (GeneID 79202) #2 → Tnf reporter robust z-score: 0.95; fewer than 50 cells in well: enough cells in well
BC049715 (GeneID 320135) → Tnf reporter robust z-score: -0.66; fewer than 50 cells in well: enough cells in well
L3mbtl3 (GeneID 237339) → Tnf reporter robust z-score: 2.97; fewer than 50 cells in well: enough cells in well
Ddx47 (GeneID 67755) → Tnf reporter robust z-score: 1.66; fewer than 50 cells in well: enough cells in well
Kctd8 (GeneID 243043) → Tnf reporter robust z-score: 2.12; fewer than 50 cells in well: enough cells in well
Rhbdf2 (GeneID 217344) → Tnf reporter robust z-score: 0.03; fewer than 50 cells in well: enough cells in well
Rab3gap2 (GeneID 98732) → Tnf reporter robust z-score: 1.48; fewer than 50 cells in well: enough cells in well
Tas2r139 (GeneID 353148) → Tnf reporter robust z-score: 1.01; fewer than 50 cells in well: enough cells in well
Stard8 (GeneID 236920) → Tnf reporter robust z-score: 1.38; fewer than 50 cells in well: enough cells in well
Chmp3 (GeneID 66700) → Tnf reporter robust z-score: 1.19; fewer than 50 cells in well: enough cells in well
Galnt1 (GeneID 14423) → Tnf reporter robust z-score: -0.44; fewer than 50 cells in well: enough cells in well
Or4e2 (GeneID 57271) → Tnf reporter robust z-score: 0.32; fewer than 50 cells in well: enough cells in well
Odf2 (GeneID 18286) → Tnf reporter robust z-score: 0.09; fewer than 50 cells in well: enough cells in well
Bche (GeneID 12038) → Tnf reporter robust z-score: -0.36; fewer than 50 cells in well: enough cells in well
Krtap26-1 (GeneID 69533) → fewer than 50 cells in well: fewer than 50 cells per well; well left out of calls
Srek1 (GeneID 218543) → Tnf reporter robust z-score: 1.51; fewer than 50 cells in well: enough cells in well
Insl5 (GeneID 23919) → Tnf reporter robust z-score: -0.09; fewer than 50 cells in well: enough cells in well
Trak1 (GeneID 67095) → Tnf reporter robust z-score: -0.63; fewer than 50 cells in well: enough cells in well
Bcs1l (GeneID 66821) → Tnf reporter robust z-score: -0.97; fewer than 50 cells in well: enough cells in well

Limited to “fewer than 50 cells in well”, for 2 of the entries above:
Psma4 (GeneID 26441) = fewer than 50 cells per well; well left out of calls
Tnfrsf22 (GeneID 79202) #1 = fewer than 50 cells per well; well left out of calls
